The list shows a part of the results. These are further read-outs of the screen, such as a control signal, another cell line or another target. No call is given for them. Most of these compounds were active or inconclusive in the main read-out, so they are no random draw. Words in brackets tell the shape of the fitted curve; partial curves, single points and poor fits give uncertain potencies.
Experiment: qHTS Assay for Lipid Storage Modulators in Drosophila S3 Cells;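 for cell number change: cells counted by Cell Tracker Red CMTPX staining in the red channel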
Conditions: BODIPY lipid droplet fluorescence, 18-24 h; for cell number change: measured here: cell count max response, cells fed with added oleic acid
Outline: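 Laser-scanning cytometry quantifies lipid droplet accumulation (500–530 nm total intensity; droplet/cell object ratio) in oleic acid-fed (400 uM added) Drosophila S3 cells treated with a concentration series. 20 uM Triacsin C defined 100% inhibition.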

[1] = measured here: lipid fluorescence (Fed channel) AC50, cells fed with added oleic acid
[2] = measured here: cell number channel AC50, cells fed with added oleic acid

Structure (SMILES) | cell number change | AC50 [1] | AC50 [2]
COc1ccc(C(=O)Nc2ccc(C3(C#N)CCCC3)cc2)cc1OC | 5.84% | – | –
Cc1ccc(S(=O)(=O)Nc2cccnc2)cc1C | -4.23% | 3.26 µM [rising, full curve, poor fit] | –
CN(C)C=Nc1ncc2c3ccccc3n(Cc3ccccc3)c2c1C#N | – | 4.11 µM [rising, single point] | 2.31 µM [rising, single point]
CC(=O)N(Cc1ccc(Cl)cc1)c1cnccn1 | 30.4% | – | 5.17 µM [rising, full curve, poor fit]
COc1ccccc1C/C(N)=N/OC(=O)COc1cccc(C)c1C | 12.3% | – | –
CCOc1ccc(CCNC(=O)COC(=O)c2ccc(S(=O)(=O)N3CCCC3)cc2)cc1OCC | – | – | 6.51 µM [rising, single point]
CCOc1cc(/C=N/N=C(\N)c2nonc2N)cc(Br)c1OCc1cccc2ccccc12 | -83.4% | 11.6 µM [falling, single point] | 29.1 µM [falling, single point]
COc1ccc(CNC(=S)Nc2cccc(OC)c2)cc1 | -20.9% | 23.1 µM [rising, single point] | –
CC(=O)N1CCN(c2ccc(N)cc2)CC1 | 1.32% | 4.11 µM [rising, full curve, poor fit] | –
COc1ccc(CCNC2CC(C)N(C)CC2C)cc1OC (stereo not drawn) | -21.8% | 4.11 µM [falling, full curve, poor fit] | 0.411 µM [falling, full curve, poor fit]
COc1cccc(CNC(=O)N2CCN(c3ccccc3)CC2)c1 | 9.91% | 0.00517 µM [rising, full curve, poor fit] | –
CC1CCCCN1CC(=O)NCc1ccc2c(c1)OCO2 (stereo not drawn) | 31.3% | – | 11.6 µM [rising, partial curve, poor fit]
CCOc1cc(CN2CCC(n3nccc3NC(=O)C3CC3)CC2)ccc1O | -32.6% | – | 23.1 µM [falling, single point]
CN(Cc1ccccc1)C(=O)c1ncn(C)c1C(=O)N(C)Cc1ccccc1 | -8.66% | 0.184 µM [rising, full curve, poor fit] | –
CCc1ccc(NC(=O)CSc2nc3n[nH]c(C)c3c(=N)n2-c2cccc(OC)c2)cc1 | -15% | 29.1 µM [falling, single point] | –
COc1ccc(C(=O)NC(=O)COC(=O)CCS(=O)(=O)c2ccc(C)cc2)cc1 | -22.5% | – | –
O=[N+]([O-])c1cc([N+](=O)[O-])c(Oc2c(F)cc(F)cc2F)cc1NN1CCCCC1 | 15.2% | – | –
CC(NC(=O)CNC(=O)c1ccccc1F)c1ccc(-n2ccnc2)cc1 (stereo not drawn) | 2% | 0.00461 µM [falling, full curve, poor fit] | 6.51 µM [rising, single point]
c1ccc(CNc2nc(-c3cccnc3)nc3ccccc23)cc1 | – | 32.6 µM [falling, partial curve, poor fit] | –
CC1(C)CC(=O)C2=C(C1)NC(=O)NC2c1ccc(Cl)cc1 (stereo not drawn) | -18.4% | – | –

Structure (SMILES) | cell number change | AC50 [1] | AC50 [2]
O=C(CSc1nnc(CNC(=O)c2ccc(F)cc2)o1)NCc1ccccc1Cl | -53.2% | 23.1 µM [falling, partial curve] | 11.6 µM [falling, partial curve]
Cc1ccc(CNC(=O)CSc2nnc3c(n2)[nH]c2ccc(F)cc23)cc1 | – | 0.116 µM [rising, full curve, poor fit] | –
Cc1ccccc1OCC(O)CN(CCO)Cc1ccccc1 (stereo not drawn) | 9.11% | 0.0058 µM [falling, full curve, poor fit] | –
CCN1CCN(C(=O)c2cccc(OC3CCN(S(=O)(=O)N(C)C)CC3)c2)CC1 | -15.2% | 2.59 µM [falling, partial curve, poor fit] | –
CCN=C1SC(CC(=O)Nc2ccccc2OCC)C(=O)N1CC (stereo not drawn) | 44.1% | – | 29.1 µM [rising, single point]
Cc1ccc(NC(=O)CCn2nnc3ccccc32)cc1 | 8.54% | 0.116 µM [rising, full curve] | –
CCc1ccc(Nc2cnn(-c3nc4ccccc4s3)c(=O)c2Cl)cc1 | 32.2% | 1.84 µM [rising, full curve, poor fit] | 1.64 µM [rising, partial curve]
CCOC(=O)CCCc1ccc(/C(C)=N/NC(N)=S)cc1 | -44% | 8.2 µM [falling, partial curve] | 16.4 µM [falling, partial curve]
O=C(NCCCn1ccnc1)c1ccc(S(=O)(=O)N2CCOCC2)cc1 | 14.1% | – | –
CCn1cc(C2=NCC(C)O2)c2ccccc21 (stereo not drawn) | – | 6.51 µM [rising, single point] | 6.51 µM [rising, single point]
CCCCN(C(=O)CNC(=O)c1ccco1)C(C(=O)NC1CCCC1)c1ccc(OC)cc1 (stereo not drawn) | – | 5.8 µM [rising, single point] | –
CC1CCCCC1NC(=O)CN1C(=O)CSc2cc(S(=O)(=O)N3CCCCCC3)ccc21 (stereo not drawn) | -5.17% | 11.6 µM [rising, partial curve, poor fit] | –
Cc1ncc([N+](=O)[O-])n1Cc1cccc(F)c1 | -0.988% | 20.6 µM [falling, partial curve] | –
CC(=O)Nc1ccc(S(=O)(=O)NC(=O)C23CC4CC(CC(C4)C2)C3)cc1 | -13% | – | –
Cc1ccc2cc(CN(c3ccc(C)c(C)c3)S(C)(=O)=O)c(=O)[nH]c2c1 | -7.77% | 2.59 µM [falling, partial curve, poor fit] | –
Cc1ccc(S(=O)(=O)C/N=C(/NC(=S)N(c2ccccc2)c2ccccc2)c2ccccc2)cc1 | -72% | – | 29.1 µM [falling, single point]
O=C(O)CSc1nccn1-c1cccc(Cl)c1 | 4.88% | 4.61 µM [rising, full curve, poor fit] | –
CC(Oc1ccccc1)C(=O)NCc1cccnc1 (stereo not drawn) | -7.47% | 16.4 µM [falling, single point] | –
CC(=O)c1c(C)[nH]c(C(=O)Nc2ccccc2Cl)c1C | -1.71% | 23.1 µM [falling, single point] | –

Arranged by formula weight (ascending): part of the list above
Structure (SMILES) | cell number change | AC50 [1] | AC50 [2]
CC(Oc1ccccc1)C(=O)NCc1cccnc1 (stereo not drawn) | -7.47% | 16.4 µM [falling, single point] | –
Cc1ccc(NC(=O)CCn2nnc3ccccc32)cc1 | 8.54% | 0.116 µM [rising, full curve] | –
CCc1ccc(Nc2cnn(-c3nc4ccccc4s3)c(=O)c2Cl)cc1 | 32.2% | 1.84 µM [rising, full curve, poor fit] | 1.64 µM [rising, partial curve]

Source: PubChem BioAssay AID2685 (National Center for Advancing Translational Sciences (NCATS), 2010)
